Reference: publication doi:10.1101/2020.12.09.418111
These are yes or no findings as the source states them, for the method shown. In cells and extracts the contact can be indirect. Some entries that bind do so weakly or less than the wild type. Where a sequence is shown, tags or fusion partners need not be part of it.

Protein sequences, listed by entry. Tags and fused reporters are not part of them.
UniProt Q13263: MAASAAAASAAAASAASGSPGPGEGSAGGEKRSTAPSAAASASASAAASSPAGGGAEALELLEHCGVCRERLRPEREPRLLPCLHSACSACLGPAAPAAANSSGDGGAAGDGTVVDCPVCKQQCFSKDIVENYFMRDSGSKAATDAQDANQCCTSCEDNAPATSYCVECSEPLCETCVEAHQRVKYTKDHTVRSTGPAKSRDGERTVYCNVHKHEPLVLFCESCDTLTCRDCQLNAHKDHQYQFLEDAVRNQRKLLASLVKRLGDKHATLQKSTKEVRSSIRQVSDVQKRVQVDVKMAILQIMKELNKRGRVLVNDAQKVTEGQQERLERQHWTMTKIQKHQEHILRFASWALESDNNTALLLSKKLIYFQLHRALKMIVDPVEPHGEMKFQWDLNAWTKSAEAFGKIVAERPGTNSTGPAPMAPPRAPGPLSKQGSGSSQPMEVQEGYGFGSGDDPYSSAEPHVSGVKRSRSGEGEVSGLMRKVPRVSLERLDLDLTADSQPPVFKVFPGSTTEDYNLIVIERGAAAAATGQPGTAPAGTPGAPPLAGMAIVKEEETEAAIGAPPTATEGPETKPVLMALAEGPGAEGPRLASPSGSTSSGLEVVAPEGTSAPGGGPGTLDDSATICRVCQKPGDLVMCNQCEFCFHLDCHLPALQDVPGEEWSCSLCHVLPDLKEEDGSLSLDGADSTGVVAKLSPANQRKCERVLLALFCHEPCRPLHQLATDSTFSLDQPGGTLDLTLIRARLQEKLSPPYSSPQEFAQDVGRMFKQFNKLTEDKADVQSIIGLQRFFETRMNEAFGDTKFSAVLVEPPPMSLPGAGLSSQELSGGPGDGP

Key:
[1] = biological target: T1, GST-Kaiso BTB/POZ domain (1-117) (UniProt Q86T24); test: pull-down
T1 sequence: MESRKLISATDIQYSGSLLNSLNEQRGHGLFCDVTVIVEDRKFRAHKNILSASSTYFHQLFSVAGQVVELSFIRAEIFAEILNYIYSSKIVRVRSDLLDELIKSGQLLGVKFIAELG

[2] = biological target: T2, GST-Kaiso zinc fingers (494-573) (UniProt Q86T24); test: pull-down
T2 sequence: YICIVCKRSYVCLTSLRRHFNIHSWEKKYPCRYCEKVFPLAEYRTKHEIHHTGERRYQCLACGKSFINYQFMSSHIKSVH

[3] = biological target: T3, GST-full length Kaiso (1-692) (UniProt Q86T24); test: pull-down
T3 sequence: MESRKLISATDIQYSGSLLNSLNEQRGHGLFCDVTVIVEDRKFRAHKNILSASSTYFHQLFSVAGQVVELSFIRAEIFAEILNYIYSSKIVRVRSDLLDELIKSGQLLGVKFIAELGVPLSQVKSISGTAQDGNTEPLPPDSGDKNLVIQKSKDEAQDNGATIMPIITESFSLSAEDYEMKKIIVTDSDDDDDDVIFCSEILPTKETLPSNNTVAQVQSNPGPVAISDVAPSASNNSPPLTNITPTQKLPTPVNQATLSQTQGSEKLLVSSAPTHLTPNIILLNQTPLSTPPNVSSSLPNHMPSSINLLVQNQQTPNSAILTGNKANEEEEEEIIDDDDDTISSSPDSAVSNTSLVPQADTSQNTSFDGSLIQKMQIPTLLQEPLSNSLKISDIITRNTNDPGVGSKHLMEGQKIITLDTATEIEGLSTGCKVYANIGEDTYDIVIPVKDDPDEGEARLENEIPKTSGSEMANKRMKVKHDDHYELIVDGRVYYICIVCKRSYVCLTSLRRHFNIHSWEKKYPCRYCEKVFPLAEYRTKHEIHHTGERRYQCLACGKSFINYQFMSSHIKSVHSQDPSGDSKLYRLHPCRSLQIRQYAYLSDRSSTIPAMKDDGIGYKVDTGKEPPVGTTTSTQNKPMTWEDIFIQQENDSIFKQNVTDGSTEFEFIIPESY

Kaiso-GFP = biological target: T4, Kaiso-GFP (UniProt Q86T24); test: co-IP
T4 sequence: T3 sequence

Measured: binding

TRIM28 tagged with HA (from UniProt Q13263 1-835)
binds: [1] | [2] | [3] | Kaiso-GFP
